Experimental data reported in the supplement of paper PMC10849652.
The other results are listed elsewhere or left out.

Chains of the proteins cited; added tags and fusions are not shown. Lines headed by an entry give the natural chain unless they say otherwise; changes in a name come on top.
UniProt Q9ULF5: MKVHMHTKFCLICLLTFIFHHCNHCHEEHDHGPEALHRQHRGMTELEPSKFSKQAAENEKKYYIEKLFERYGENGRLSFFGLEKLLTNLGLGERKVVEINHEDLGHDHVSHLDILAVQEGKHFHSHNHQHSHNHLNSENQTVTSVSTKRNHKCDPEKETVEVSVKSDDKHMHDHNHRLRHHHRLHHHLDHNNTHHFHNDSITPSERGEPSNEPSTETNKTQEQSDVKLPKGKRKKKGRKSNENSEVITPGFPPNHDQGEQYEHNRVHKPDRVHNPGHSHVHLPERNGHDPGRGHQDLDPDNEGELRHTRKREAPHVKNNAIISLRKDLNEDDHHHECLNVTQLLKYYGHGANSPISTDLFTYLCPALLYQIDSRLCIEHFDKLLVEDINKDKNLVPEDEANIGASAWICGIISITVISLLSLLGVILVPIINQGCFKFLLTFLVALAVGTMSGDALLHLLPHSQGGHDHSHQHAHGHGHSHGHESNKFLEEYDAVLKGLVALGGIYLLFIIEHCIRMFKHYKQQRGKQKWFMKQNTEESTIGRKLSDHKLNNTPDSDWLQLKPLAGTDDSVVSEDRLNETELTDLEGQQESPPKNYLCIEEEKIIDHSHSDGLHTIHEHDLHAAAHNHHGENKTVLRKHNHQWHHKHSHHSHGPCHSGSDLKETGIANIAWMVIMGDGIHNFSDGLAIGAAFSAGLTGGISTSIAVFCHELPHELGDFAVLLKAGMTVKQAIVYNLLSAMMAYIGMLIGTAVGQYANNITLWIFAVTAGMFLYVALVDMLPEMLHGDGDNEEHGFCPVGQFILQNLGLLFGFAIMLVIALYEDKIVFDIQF
UniProt Q6KCM7: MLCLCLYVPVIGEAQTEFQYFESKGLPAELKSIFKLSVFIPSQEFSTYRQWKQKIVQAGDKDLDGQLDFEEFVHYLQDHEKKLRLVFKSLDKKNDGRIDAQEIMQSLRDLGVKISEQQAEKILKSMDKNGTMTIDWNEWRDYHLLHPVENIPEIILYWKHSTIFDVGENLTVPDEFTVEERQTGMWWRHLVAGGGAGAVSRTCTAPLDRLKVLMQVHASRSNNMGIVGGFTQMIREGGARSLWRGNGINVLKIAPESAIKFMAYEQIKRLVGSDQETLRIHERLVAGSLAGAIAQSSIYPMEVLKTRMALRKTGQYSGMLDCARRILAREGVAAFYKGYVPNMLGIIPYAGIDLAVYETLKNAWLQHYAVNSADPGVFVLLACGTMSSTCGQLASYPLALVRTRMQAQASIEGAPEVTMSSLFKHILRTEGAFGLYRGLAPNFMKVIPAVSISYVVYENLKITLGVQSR
UniProt Q13433: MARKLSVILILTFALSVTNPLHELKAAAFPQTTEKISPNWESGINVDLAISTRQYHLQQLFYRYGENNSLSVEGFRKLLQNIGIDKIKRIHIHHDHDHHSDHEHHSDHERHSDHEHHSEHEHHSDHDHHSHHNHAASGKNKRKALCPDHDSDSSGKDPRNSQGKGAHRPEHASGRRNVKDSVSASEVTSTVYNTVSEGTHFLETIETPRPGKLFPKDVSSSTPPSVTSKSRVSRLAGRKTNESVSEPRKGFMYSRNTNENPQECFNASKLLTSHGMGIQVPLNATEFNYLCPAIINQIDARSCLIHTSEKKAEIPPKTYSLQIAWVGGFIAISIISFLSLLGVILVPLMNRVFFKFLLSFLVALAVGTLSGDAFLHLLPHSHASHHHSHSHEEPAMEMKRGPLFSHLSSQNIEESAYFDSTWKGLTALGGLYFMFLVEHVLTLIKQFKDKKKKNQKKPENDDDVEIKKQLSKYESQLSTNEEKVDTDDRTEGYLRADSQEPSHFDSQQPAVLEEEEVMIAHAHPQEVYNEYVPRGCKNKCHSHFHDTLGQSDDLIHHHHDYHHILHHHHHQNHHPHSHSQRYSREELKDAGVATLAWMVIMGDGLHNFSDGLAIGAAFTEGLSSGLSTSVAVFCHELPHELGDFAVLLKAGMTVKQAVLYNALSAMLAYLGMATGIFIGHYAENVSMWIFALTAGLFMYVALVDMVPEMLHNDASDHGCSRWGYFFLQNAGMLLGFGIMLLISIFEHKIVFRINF
UniProt Q8TAD4: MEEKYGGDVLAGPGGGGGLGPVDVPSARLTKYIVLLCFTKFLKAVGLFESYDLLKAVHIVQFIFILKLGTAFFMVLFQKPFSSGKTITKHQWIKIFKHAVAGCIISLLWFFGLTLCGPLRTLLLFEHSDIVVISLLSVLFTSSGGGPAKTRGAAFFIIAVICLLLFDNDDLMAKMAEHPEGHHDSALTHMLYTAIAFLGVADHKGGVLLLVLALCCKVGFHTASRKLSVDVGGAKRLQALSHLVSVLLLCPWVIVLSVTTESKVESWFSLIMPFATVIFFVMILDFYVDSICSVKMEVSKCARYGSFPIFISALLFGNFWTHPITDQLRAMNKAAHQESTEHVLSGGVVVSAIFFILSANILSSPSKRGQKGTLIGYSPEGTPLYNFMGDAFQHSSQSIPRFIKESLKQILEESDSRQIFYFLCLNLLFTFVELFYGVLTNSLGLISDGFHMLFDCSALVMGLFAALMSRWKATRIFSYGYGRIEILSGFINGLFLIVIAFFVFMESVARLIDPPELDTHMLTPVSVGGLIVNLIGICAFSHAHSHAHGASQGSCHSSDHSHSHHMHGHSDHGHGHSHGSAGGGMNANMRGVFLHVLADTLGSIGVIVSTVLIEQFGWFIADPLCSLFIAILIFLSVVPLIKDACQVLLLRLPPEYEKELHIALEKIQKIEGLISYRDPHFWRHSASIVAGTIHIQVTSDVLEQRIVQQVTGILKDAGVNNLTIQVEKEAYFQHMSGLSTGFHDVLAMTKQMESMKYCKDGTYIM
UniProt P48029: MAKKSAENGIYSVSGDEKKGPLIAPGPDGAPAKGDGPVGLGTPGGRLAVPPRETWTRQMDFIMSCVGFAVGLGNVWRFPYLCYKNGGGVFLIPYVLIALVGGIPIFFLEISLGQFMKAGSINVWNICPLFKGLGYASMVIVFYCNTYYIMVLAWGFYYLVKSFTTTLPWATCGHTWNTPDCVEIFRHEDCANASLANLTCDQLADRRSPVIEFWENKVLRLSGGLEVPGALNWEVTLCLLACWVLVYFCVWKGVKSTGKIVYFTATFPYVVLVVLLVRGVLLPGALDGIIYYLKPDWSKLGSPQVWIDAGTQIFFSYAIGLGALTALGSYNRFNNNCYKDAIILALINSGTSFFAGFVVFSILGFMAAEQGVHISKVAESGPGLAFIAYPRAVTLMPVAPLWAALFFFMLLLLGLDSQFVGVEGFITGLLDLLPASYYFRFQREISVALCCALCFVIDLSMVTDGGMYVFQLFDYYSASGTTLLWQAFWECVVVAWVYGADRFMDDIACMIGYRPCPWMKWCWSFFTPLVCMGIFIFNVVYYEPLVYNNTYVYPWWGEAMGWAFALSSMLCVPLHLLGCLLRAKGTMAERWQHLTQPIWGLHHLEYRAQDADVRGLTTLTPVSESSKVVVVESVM
UniProt P53007, whole entry, looked up: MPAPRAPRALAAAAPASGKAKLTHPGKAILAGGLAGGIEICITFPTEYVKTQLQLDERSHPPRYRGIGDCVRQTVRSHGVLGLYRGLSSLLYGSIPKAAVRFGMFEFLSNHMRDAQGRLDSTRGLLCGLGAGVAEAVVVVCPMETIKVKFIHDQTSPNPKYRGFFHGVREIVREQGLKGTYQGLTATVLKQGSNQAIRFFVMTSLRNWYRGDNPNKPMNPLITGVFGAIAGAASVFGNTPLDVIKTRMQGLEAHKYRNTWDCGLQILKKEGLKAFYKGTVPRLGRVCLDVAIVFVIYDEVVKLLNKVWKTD
UniProt Q9Y6M5: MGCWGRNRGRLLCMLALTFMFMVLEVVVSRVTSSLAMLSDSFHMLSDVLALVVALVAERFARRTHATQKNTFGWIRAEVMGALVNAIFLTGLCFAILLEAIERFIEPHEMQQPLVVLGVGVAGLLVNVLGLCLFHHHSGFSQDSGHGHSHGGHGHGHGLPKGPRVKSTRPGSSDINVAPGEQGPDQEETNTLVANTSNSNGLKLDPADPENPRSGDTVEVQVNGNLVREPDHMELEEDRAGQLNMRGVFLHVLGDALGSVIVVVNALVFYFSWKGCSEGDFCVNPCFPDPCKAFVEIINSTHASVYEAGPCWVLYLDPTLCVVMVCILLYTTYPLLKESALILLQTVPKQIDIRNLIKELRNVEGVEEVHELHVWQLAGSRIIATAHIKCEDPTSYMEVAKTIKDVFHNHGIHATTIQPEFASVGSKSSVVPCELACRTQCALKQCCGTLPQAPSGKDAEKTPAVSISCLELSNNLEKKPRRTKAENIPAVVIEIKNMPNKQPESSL
UniProt Q8WUM9: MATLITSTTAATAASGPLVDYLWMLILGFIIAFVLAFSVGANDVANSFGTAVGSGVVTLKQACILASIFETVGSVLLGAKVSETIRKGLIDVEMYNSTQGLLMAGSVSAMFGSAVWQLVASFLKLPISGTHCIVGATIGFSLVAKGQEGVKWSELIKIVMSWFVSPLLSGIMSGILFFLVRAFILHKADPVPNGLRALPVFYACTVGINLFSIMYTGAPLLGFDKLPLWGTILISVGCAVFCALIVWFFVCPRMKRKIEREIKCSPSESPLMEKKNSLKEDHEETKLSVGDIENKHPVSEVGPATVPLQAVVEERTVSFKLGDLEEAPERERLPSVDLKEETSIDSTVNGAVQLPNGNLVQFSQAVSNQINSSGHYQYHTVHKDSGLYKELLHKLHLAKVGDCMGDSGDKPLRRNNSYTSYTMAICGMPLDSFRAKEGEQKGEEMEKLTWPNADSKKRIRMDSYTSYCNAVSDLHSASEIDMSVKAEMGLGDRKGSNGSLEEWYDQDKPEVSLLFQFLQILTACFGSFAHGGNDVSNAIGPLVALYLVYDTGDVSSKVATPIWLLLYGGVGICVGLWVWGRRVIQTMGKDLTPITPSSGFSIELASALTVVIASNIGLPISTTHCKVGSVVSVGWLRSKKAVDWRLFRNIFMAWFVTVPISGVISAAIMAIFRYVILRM
UniProt Q6NUK1: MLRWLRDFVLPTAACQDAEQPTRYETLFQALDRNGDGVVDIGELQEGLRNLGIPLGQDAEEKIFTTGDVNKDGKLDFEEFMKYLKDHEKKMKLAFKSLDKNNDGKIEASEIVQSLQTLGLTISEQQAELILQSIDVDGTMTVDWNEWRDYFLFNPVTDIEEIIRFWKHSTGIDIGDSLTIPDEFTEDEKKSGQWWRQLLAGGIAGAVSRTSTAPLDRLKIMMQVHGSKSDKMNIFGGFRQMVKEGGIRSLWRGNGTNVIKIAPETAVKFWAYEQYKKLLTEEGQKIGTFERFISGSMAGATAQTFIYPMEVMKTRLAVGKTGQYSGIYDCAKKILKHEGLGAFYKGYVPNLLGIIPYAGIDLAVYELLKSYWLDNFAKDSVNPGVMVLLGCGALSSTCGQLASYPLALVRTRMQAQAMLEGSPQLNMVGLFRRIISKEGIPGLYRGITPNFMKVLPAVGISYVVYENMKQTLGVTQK
UniProt P16260: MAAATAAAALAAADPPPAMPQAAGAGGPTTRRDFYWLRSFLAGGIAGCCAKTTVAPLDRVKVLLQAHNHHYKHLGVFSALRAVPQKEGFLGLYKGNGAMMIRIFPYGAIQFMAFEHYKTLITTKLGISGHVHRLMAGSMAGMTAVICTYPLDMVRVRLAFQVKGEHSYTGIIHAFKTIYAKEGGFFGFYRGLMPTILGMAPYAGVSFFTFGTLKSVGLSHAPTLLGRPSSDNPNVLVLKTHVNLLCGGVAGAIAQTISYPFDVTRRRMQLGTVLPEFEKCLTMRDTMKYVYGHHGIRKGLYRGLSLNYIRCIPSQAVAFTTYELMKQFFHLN
UniProt Q00325: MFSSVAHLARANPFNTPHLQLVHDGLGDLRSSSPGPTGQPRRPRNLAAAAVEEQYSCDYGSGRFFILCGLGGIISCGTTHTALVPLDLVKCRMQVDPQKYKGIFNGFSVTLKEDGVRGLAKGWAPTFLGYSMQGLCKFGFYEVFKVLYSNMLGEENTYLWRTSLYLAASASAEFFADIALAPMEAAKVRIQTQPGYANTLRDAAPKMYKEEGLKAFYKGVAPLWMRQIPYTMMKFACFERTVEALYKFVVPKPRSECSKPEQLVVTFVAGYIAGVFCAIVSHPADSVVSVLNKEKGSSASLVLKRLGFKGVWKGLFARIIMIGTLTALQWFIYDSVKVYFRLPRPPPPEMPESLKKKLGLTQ
UniProt Q9H936: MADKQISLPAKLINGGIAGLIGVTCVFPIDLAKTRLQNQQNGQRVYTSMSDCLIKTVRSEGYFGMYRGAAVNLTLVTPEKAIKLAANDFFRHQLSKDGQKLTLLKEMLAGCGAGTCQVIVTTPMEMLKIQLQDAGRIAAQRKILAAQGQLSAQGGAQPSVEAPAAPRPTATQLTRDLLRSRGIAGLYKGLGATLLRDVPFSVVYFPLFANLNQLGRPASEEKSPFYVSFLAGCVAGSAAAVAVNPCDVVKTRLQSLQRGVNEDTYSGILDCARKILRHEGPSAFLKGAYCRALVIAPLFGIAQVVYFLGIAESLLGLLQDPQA

Each target was assayed with c1cc(OCCN2CCCCC2)cc(-c2n[nH]c3ccc(-c4nnc[nH]4)cc23)c1 (assay: log2 fold change, soluble protein after heating vs DMSO (PISA); higher = thermal stabilisation; K562 cells, 10 uM, 30 min; active = over 0.2 and 3.5 SD of the protein, either way, in both replicates (recomputed)).
Outline: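 Quantification of soluble protein used TMTpro 16plex LC-MS/MS, with channel sums equalised. Samples were the supernatant after 21,000xg for 90 min of pooled aliquots from K562 cells (2×10^6 cells/mL) treated with 10 μM compound for 30 min, heated for 3 min over 48°C-58°C, and extracted in PBS with 0.5% NP-40 at 4°C. Values, from duplicates, describe thermal stability against control samples on a log2 fold-change scale.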

log2 fold change, inactive:
SLC39A10 (UniProt Q9ULF5) -0.054
SLC45A4 isoform 3 (UniProt Q5BKX6) -0.186
SLC3A2 isoform 3 (UniProt P08195) -0.017
SLC20A2 (UniProt Q08357) -0.121
SLC25A25 isoform 3 (UniProt Q6KCM7) -0.014
SLC39A6 (UniProt Q13433) -0.077
SLC30A5 (UniProt Q8TAD4) 0.001
SLC6A8 (UniProt P48029) -0.027
SLC25A1 (UniProt P53007) -0.021
SLC25A37 (UniProt Q9NYZ2) -0.046
SLC4A1AP (UniProt Q9BWU0) -0.031
SLC30A1 (UniProt Q9Y6M5) -0.039
SLC20A1 (UniProt Q8WUM9) -0.109
SLC5A6 (UniProt Q9Y289) -0.053
SLC35B2 (UniProt Q8TB61) 0.03
SLC35A2 isoform 4 (UniProt P78381) -0.039
SLC25A24 (UniProt Q6NUK1) 0.007
SLC1A4 (UniProt P43007) -0.043
SLC25A16 (UniProt P16260) 0.023
SLC25A3 isoform 2 (UniProt Q00325) -0.039
SLC25A22 (UniProt Q9H936) -0.049

At a glance, some entries already given:
log2 fold change, inactive:
SLC3A2 isoform 3 (UniProt P08195) -0.017
SLC20A2 (UniProt Q08357) -0.121
